PubChem BioAssay (NCATS)
Inconclusive results, whose numbers are uncertain, are shown with a selection of clear calls. For some of these results: Where the call is inconclusive, the potency comes from a doubtful curve fit. Activity calls are given as the source filed them. Calls follow the shape of the dose curve; as a rule, active = well fitted cell-killing curve with a large enough effect; inconclusive = small, poorly fitted or top-dose-only effect, or effect the other way; inactive = no such curve, though single readings can be large or run the other way.

Legend:
[1] = Quantitative High-Throughput drug screen in 47 multiple myeloma cell lines against the NCATS MIPE library collection: H1112_PLB cell viability assay (AID 1918967; also: nearly all actives have a fitted effect of over 30% in size); conditions: H1112 myeloma cells viability, ATP luminescence, 48 h; viability: at 45.8 µM (top of the series)
Method in brief: (§1)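 Luminescent ATP measurement with CellTiter-Glo gives viability, scaled between DMSO-only wells (100%) and media-only wells (0%). Cells, 500 per well, faced library compounds for 48 hours at 37C.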

[2] = Quantitative High-Throughput drug screen in 47 multiple myeloma cell lines against the NCATS MIPE library collection: Karpas25_ECACC cell viability assay (AID 1918968; also: nearly all actives have a fitted effect of over 35% in size); conditions: Karpas25 myeloma viability, CellTiter-Glo ATP, 48 h; viability (% of control): at 45.8 µM (top of the series)
Method in brief: as §1

[3] = Quantitative High-Throughput drug screen in 47 multiple myeloma cell lines against the NCATS MIPE library collection: KMS12BM_JCRB cell viability assay (AID 1918971); also: nearly all actives have a fitted effect of over 35% in size
Method in brief: (§2)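 Inhibition of cell viability is measured here. Each line was plated at 500 cells per well, treated with MIPE 4.0 drugs, kept 48 hours at 37C, then assayed for ATP content by CellTiter-Glo luminescence.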

[4] = Quantitative High-Throughput drug screen in 47 multiple myeloma cell lines against the NCATS MIPE library collection: KMS20_JCRB cell viability assay (AID 1918973); conditions: CellTiter-Glo ATP, 48 h; viability (% of DMSO): at 45.8 µM (top of the series); also: nearly all actives have a fitted effect of over 45% in size
Method in brief: as §1

[5] = Quantitative High-Throughput drug screen in 47 multiple myeloma cell lines against the NCATS MIPE library collection: KMS21BM_JCRB cell viability assay (AID 1918974); conditions: ATP luminescence, 48 h; viability: at 45.8 µM (top of the series) unless noted
Method in brief: as §1

[6] = Quantitative High-Throughput drug screen in 47 multiple myeloma cell lines against the NCATS MIPE library collection: MMM1_PLB cell viability assay (AID 1918976); also: nearly all actives have a fitted effect of over 35% in size
Method in brief: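 Inhibition of viability over 48 h was scored by ATP content (CellTiter-Glo) in 500-cell wells. Zero and full viability were defined by media-only and DMSO-only wells.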

[7] = Quantitative High-Throughput drug screen in 47 multiple myeloma cell lines against the NCATS MIPE library collection: JJN3_DSMZ cell viability assay (AID 1918966; also: nearly all actives have a fitted effect of over 50% in size)
Method in brief: as §1

[8] = Quantitative High-Throughput drug screen in 47 multiple myeloma cell lines against the NCATS MIPE library collection: KMS12PE_JCRB cell viability assay (AID 1918972); conditions: KMS12PE myeloma viability, CellTiter-Glo ATP, 48 h; viability: at 45.8 µM (top of the series); also: nearly all actives have a fitted effect of over 30% in size
Method in brief: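 Steps: seed 500 cells per well; pin-transfer MIPE 4.0 library; incubate 48 h at 37C, 5% CO2, humidified; add CellTiter-Glo, 5 min room temperature; read luminescence.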

[9] = Quantitative High-Throughput drug screen in 47 multiple myeloma cell lines against the NCATS MIPE library collection: KMS26_JCRB cell viability assay (AID 1918975); conditions: KMS26 myeloma cells viability, CellTiter-Glo ATP, 48 h; viability (% of DMSO): at 45.8 µM (top of the series); also: nearly all actives have a fitted effect of over 45% in size
Method in brief: as §2

[10] = Quantitative High-Throughput drug screen in 47 multiple myeloma cell lines against the NCATS MIPE library collection: KMS27_JCRB cell viability assay (AID 1918970); conditions: KMS27 myeloma cells, CellTiter-Glo ATP viability, 48 h; viability (% of DMSO): at 45.8 µM (top of the series) unless noted; also: nearly all actives have a fitted effect of over 30% in size
Method in brief: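 Each line is seeded at 500 cells per well and treated with library compounds for 48 hours under 37 °C, 5% CO2. CellTiter-Glo is then added for 5 min at room temperature before median relative luminescence is recorded.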
Potency is read from the fitted curve at half-maximal effect.

Q: Which results are given for C[C@@H](c1ncncc1F)[C@](O)(Cn1cncn1)c1ccc(F)cc1F?
A: Potency [1]: inconclusive: 4.18 µM [cytotoxic, partial curve, poor fit]; Potency [2]: inactive; Potency [3]: inconclusive: 8.33 µM [cytotoxic, partial curve, poor fit]; Potency [4]: inconclusive: 0.0037 µM [cytotoxic, full curve, poor fit]; Potency [5]: inconclusive: 33.2 µM [rising, single point]; Potency [6]: inconclusive: 1.05 µM [cytotoxic, full curve, poor fit]

Q: For O=c1[nH]c(=O)n([C@H]2C[C@@H](O)[C@@H](CO)O2)cc1C(F)(F)F, which Potency [7] is on record?
A: The Potency was “inactive”.

Q: What about the Potency [8] of the same compound?
A: The Potency was inconclusive: 0.526 µM [cytotoxic, full curve, poor fit].

Q: What about the Potency [4] of the same compound?
A: The Potency was inconclusive: 11.8 µM [cytotoxic, partial curve, poor fit].

Q: And the Potency [5]?
A: The Potency was inconclusive: 9.35 µM [cytotoxic, full curve, poor fit].

Q: And the Potency [9]?
A: Its Potency is inconclusive: 16.6 µM [cytotoxic, partial curve, poor fit].

Q: For COc1cc2c(Nc3ccc(Br)cc3F)ncnc2cc1OCC1CCN(C)CC1, which Potency [1] is on record?
A: Its Potency is inconclusive: 10.5 µM [cytotoxic, partial curve].

Q: What about the Potency [10] of the same compound?
A: Its Potency is inconclusive: 0.0074 µM [cytotoxic, full curve, poor fit].

Q: And the Potency [8]?
A: The Potency was inconclusive: 4.18 µM [cytotoxic, partial curve, poor fit].

Q: What about the Potency [4] of the same compound?
A: The Potency was active: 9.35 µM.

Q: What about the Potency [5] of the same compound?
A: Its Potency is “inactive”.

Q: What about the Potency [9] of the same compound?
A: Its Potency is inconclusive: 33.2 µM [cytotoxic, single point].

Q: What about the Potency [6] of the same compound?
A: The Potency was inconclusive: 20.9 µM [cytotoxic, partial curve, poor fit].

Q: For NS(=O)(=O)OC[C@@H]1C[C@@H](n2ccc3c(N[C@H]4CCc5ccccc54)ncnc32)C[C@H]1O, which Potency [1] is on record?
A: The Potency was inconclusive: 0.59 µM [cytotoxic, full curve].

Q: And the Potency [10]?
A: The Potency was inconclusive: 0.372 µM [cytotoxic, full curve].

Q: What about the Potency [8] of the same compound?
A: The Potency was inconclusive: 1.87 µM [cytotoxic, full curve].

Q: What about the Potency [6] of the same compound?
A: Its Potency is inconclusive: 14.8 µM [cytotoxic, partial curve, poor fit].

Q: What does the source list for CCN(CC)CCCCNc1ncc2cc(-c3cc(OC)cc(OC)c3)c(NC(=O)NC(C)(C)C)nc2n1?
A: Potency [7]: active: 20.9 µM; Potency [8]: active: 16.6 µM; Potency [4]: active: 7.43 µM; Potency [5]: inconclusive: 16.6 µM [cytotoxic, partial curve, poor fit]; Potency [9]: inconclusive: 37.2 µM [cytotoxic, single point]; Potency [6]: inconclusive: 37.2 µM [cytotoxic, single point]

Q: Which Potency [1] does the source give for CC[C@@H]1C(=O)N(C)c2cnc(Nc3ccc(C(=O)NC4CCN(C)CC4)cc3OC)nc2N1C1CCCC1 here?
A: The Potency was inconclusive: 18.7 µM [cytotoxic, partial curve, poor fit].

Q: What about the Potency [10] of the same compound?
A: The Potency was inconclusive: 14.8 µM [cytotoxic, partial curve, poor fit].

Q: What about the viability [5] of the same compound?
A: Its viability is inconclusive: 10.4% [cytotoxic].

Q: Which Potency [1] does the source give for COc1ccccc1OCC(O)COC(N)=O (stereo not given) here?
A: Its Potency is “inactive”.

Q: And the Potency [2]?
A: The Potency was “inactive”.

Q: And the Potency [10]?
A: The Potency was “inactive”.

Q: And the Potency [3]?
A: Its Potency is “inactive”.

Q: And the Potency [4]?
A: Its Potency is inconclusive: 14.8 µM [cytotoxic, single point].

Q: What about the Potency [6] of the same compound?
A: The Potency was inconclusive: 0.0019 µM [rising, full curve, poor fit].

Q: With CCn1c(-c2nonc2N)nc2cncc(CNC3CCNCC3)c21 as the compound, how does the Potency [1] read?
A: The Potency was active: 5.26 µM.

Q: And the Potency [2]?
A: Its Potency is active: 8.33 µM.

Q: What about the Potency [3] of the same compound?
A: The Potency was “inactive”.

Q: What about the Potency [5] of the same compound?
A: Its Potency is inconclusive: 33.2 µM [rising, single point].

Q: What about the Potency [9] of the same compound?
A: The Potency was inconclusive: 29.6 µM [cytotoxic, single point].

Q: For CC1=C(CC(=O)O)c2cc(F)ccc2C1=Cc1ccc(S(C)=O)cc1 (stereo not given), which Potency [1] is on record?
A: The Potency was inconclusive: 1.32 µM [cytotoxic, full curve].

Q: And the Potency [2]?
A: Its Potency is inconclusive: 2.09 µM [cytotoxic, full curve, poor fit].

Q: And the Potency [10]?
A: The Potency was inconclusive: 7.43 µM [cytotoxic, partial curve, poor fit].

Q: What about the Potency [3] of the same compound?
A: The Potency was inconclusive: 20.9 µM [cytotoxic, partial curve, poor fit].

Q: What about the Potency [8] of the same compound?
A: Its Potency is inconclusive: 16.6 µM [cytotoxic, partial curve].

Q: And the Potency [5]?
A: The Potency was active: 20.9 µM.

Q: And the Potency [6]?
A: The Potency was inconclusive: 23.5 µM [cytotoxic, partial curve, poor fit].

Q: What does the source list for CN(C)c1ccc(-c2nc3ncc(Cl)c(N4CCN(CC(=O)Nc5nccs5)CC4)c3[nH]2)cc1?
A: Potency [1]: inconclusive: 1.05 µM [cytotoxic, partial curve, poor fit]; Potency [10]: inconclusive: 3.32 µM [rising, full curve, poor fit]; Potency [8]: inconclusive: 0.0118 µM [cytotoxic, full curve, poor fit]; Potency [4]: inconclusive: 1.18 µM [cytotoxic, full curve, poor fit]; Potency [5]: inconclusive: 26.4 µM [rising, partial curve, poor fit]; Potency [6]: active: 9.35 µM
